Results published in US20240366776A1 (Hoffmann-La Roche, published 2024).
These are yes or no findings as the source states them, for the method shown. Some results given as binding are weak or reduced against the parent protein; the word gives no strength.

The chains behind the UniProt entries cited, without tags or fusion partners. Residues count along the entry.
UniProt Q15116, residues 25-167: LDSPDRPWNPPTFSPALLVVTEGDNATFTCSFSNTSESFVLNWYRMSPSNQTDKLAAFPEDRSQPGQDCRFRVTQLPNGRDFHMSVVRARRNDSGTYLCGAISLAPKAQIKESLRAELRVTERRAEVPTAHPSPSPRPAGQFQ

B1: PD1-IL2-R06-E04 (SEQ ID NO: 33) (scFv)
scFv: QVQLVQSGAEVKKPGASVKVSCKASGYTFTRYYIHWVRQAPGQGLEWMGWINAYNGDTNYAQKLQGRVTMTRDTSTSTVYMELSSLRSEDTAVYYCARDSYYYDSFDYWGQGTLVTVSSASGGGGSGGGGSGGGGSHASDIQMTQSPSSLSASVGDRVTITCRASQTITDWLAWYQQKPGKAPKLLIYGASNLQGGVPSRFSGSGSGTDFTLTISSLQPEDFATYYCQQYYSSWTFGQGTKVEIK
notes: V5-tagged in the assay
B2: PD1-IL2-R02-C03 (SEQ ID NO: 32) (scFv)
scFv: QVQLVQSGAEVKKPGASVKVSCKASGYTFPRYHIHWVRQAPGQGLEWMGMINPSGGTTTYAQKFQGRVTMTRDTSTSTVYMELSSLRSEDTAVYYCARDTGLGYYYGSGDFDYWGQGTLVTVSSASGGGGSGGGGSGGGGSHASDIQMTQSPSSLSASVGDRVTITCRASQSISSWLAWYQQKPGKAPKLLIYAASSLQSGVPSRFSGSGSGTDFTLTISSLQPEDFATYYCQQSHSFPLTFGGGTKVEIK
notes: V5-tagged in the assay
B3: PD1-IL2-R02-C02 (SEQ ID NO: 31) (scFv)
scFv: QVQLVQSGAEVKKPGVSVKVSCKASGYTFPRSYIHWVRQAPGQGLEWMGWINPHSGDTYYAQNFQGRVTMTRDTSTSTVYMELSSLRSEDTAVYYCARDTGLGYYYGSGDFDYWGQGTLVTVSSASGGGGSGGGGSGGGGSHASDIQMTQSPSSLSASVGDRVTITCRASQSISRYLNWYQQKPGKAPKLLIYTASSLQSGVPSRFSGSGSGTDFTLTISSLQPEDFATYYCQQANRFPLTFGPGTKVDIK
notes: V5-tagged in the assay
B4: PD1-IL2-R07-A09 (SEQ ID NO: 34) (scFv)
scFv: QVQLVQSGAEVKKPGASVKVSCKASGYTFTSYYMHWVRQAPGQGLEWMGIINPSDGSTTYAQSFQGRVTMTRDTSTSTVYMELSSLRSEDTAVYYCASGWDVWGQGTLVTVSSASGGGGSGGGGSGGGGSHASDIVMTQSPDSLAVSLGERATINCKSSQSVFSSANNKNYLAWYQQKPGQPPKLLIYWASTRESGVPDRFSGSGSGTDFTLTISSLQAEDVAVYYCQQYFGTPVTFGGGTKVEIK
notes: V5-tagged in the assay

Target: PD-1 (human, UniProt Q15116 25-167, limits assumed)
Test: HTRF

| binding | Binder |
| --- | --- |
| binds | B1 |
| binds | B2 |
| binds | B3 |
| binds | B4 |
